Results reported in PubChem BioAssay AID504444 (National Center for Advancing Translational Sciences (NCATS), 2011).
Hit rate of the full screen: of about 360,000 compounds, about 7,500 (2.1%) were called active. Inconclusive means that the source gave no clear call. Such entries were picked first, then a sample of the others. Calls come from the whole dose curve; as a rule, active = well fitted inhibition curve with a large enough effect; inconclusive = small, poorly fitted or top-dose-only effect, or effect the other way; inactive = flat fitted curve, though single readings scatter. A potency beside an inconclusive call is a rough fit, not a confirmed value.
% is set by controls: 0 for no effect and ±100 for the full control effect; potency is the fitted concentration of half-maximal effect.

Assay: Nrf2 qHTS screen for inhibitors; note: nearly all actives have a fitted effect of over 60% in size
Conditions: A549 ARE-Fluc reporter, luciferase luminescence, 18-24 h; activity change, negative = inhibition: at 46 µM (top of the series)
Summary of the method: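 Nrf2 activity is the BugLite luminescence, read 15 min after reagent at room temperature, following CellTiter-Fluor cytotoxicity readout (30 min, 37C). Compound titrations were applied for 18-24 h to 5000 A549 ARE_Fluc cells/well in 5% FBS OPTI-MEM.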
In the case of CC[N+]1(CC(O)COC2CC(C)CC(C)(C)C2)CCOCC1 (stereo unspecified), the Potency is reported as inconclusive: 18.4 µM [activator, single point].
In the case of COc1ccc(CN2C(=O)C(CC(C)C)Nc3ncnc(N4CCOCC4)c32)cc1 (stereo unspecified), the Potency is reported as inconclusive: 29.1 µM [activator, single point].
For CC(=O)Nc1ccc2nc(-c3cc(C)ccc3C)[nH]c2c1, the “activity change, negative = inhibition” value was inactive: 26.8%.
In the case of CCc1nc(N2CCN(C(=O)c3ccccc3)CC2)c2c3c(sc2n1)CCCC3, the Potency is reported as inconclusive: 18.4 µM [falling, single point].
With CCc1cccc(-n2nnc(-c3nsc(NC(=O)c4cccs4)n3)c2C)c1 the Potency was inconclusive: 0.651 µM [falling, partial curve, poor fit].
With Cc1ccc(OCc2ccc(-c3nc(C#N)c(NCc4cccnc4)o3)o2)cc1 the Potency was inconclusive: 29.1 µM [falling, single point].
With CCCn1c(O)c(N=Nc2ccc3ccccc3n2)c2ccccc21 the Potency was inconclusive: 10.3 µM [activator, partial curve].
With COc1ccc(N2CCCn3c2nc2c3c(=O)n(Cc3ccc(C)cc3)c(=O)n2C)c(OC)c1 the Potency was inconclusive: 18.4 µM [falling, partial curve, poor fit].
In the case of CCOC(=O)c1cc(-c2ccccc2)n(CCC(=O)N2CCN(c3ccccc3OC)CC2)c1C, the Potency is reported as inconclusive: 20.6 µM [falling, single point].
For CCOc1ccc(-n2c(C)c(C(C)=O)c(C(C)=O)c2C)cc1, the Potency was inconclusive: 6.51 µM [falling, full curve].
In the case of CC(C)c1ccc(/C=N/NC(=O)C2CCCC2)cc1, the Potency is reported as inconclusive: 6.51 µM [activator, full curve].
For COc1cc(CNCc2c[nH]c3ccccc23)cc(OC)c1, the Potency was inconclusive: 29.1 µM [falling, partial curve, poor fit].
With Cc1ccc(CN2C(=O)C3(c4ccccc42)N(c2cccc(F)c2)C(=O)CS3(=O)=O)cc1 (stereo unspecified) the Potency was inconclusive: 23.1 µM [falling, single point].
For COC(=O)CC1C(=O)NCCN1Cc1cn(-c2ccc(C)cc2)nc1-c1cccc(C)c1 (stereo unspecified), the “activity change, negative = inhibition” value was inactive: 13%.
In the case of CCOc1ccc(CNC(=O)Cn2cc3c(n2)-c2c(oc(C(=O)N4CCOCC4)c2C)CC3)cc1, the Potency is reported as inconclusive: 18.4 µM [falling, single point].
In the case of COc1cc(CCC(C)=O)ccc1OC(=O)c1c(F)cccc1Cl, the Potency is reported as inconclusive: 5.8 µM [activator, full curve].
With Cc1ccc(N(C)S(=O)(=O)c2nnc(NC(=O)C3CCCCC3)s2)cc1 the Potency was inconclusive: 7.31 µM [activator, partial curve].
With CCOc1ccc2nc(N=NC3=C(O)CC(C)(C)CC3=O)sc2c1 the Potency was inconclusive: 7.31 µM [activator, partial curve].
With C=CCn1c(C)c(C(C)=O)c(N2CCN(C(c3ccccc3)c3ccccc3)CC2)nc1=S the Potency was inconclusive: 29.1 µM [falling, single point].
For CN(C)/N=C/c1ccc([N+](=O)[O-])cc1[N+](=O)[O-], the Potency was inconclusive: 3.26 µM [activator, single point].
In the case of CCOC(=O)c1[nH]c2ccccc2c1NC(=O)C1CCCC1, the “activity change, negative = inhibition” value is reported as inactive: 1.41%.
For O=C(Cc1ccc(NC(=O)N2CCSc3ncccc32)cc1)NCCc1ccccc1, the “activity change, negative = inhibition” value was inactive: -2.7%.
With COc1cccc(/C=C2\SC(=S)N(CCCC(=O)Nc3ccc(C(=O)O)cc3)C2=O)c1 the “activity change, negative = inhibition” value was inactive: -19.3%.
For Cn1cnnc1SCC(=O)Nc1ccc2ccccc2c1, the “activity change, negative = inhibition” value was inactive: 4.02%.
With O=C1NC[C@H](Cc2ccccc2)N(C[C@H]2CCCN2C[C@H](Cc2ccccc2)N2C[C@H](Cc3ccccc3)N(CCc3ccccc3)C(=O)C2=O)C1=O the Potency was inconclusive: 29.1 µM [falling, single point].
With O=C(NC1CCC(O)CC1)c1cc(Cl)c2c(c1)OCCO2 (stereo unspecified) the Potency was inconclusive: 16.4 µM [activator, partial curve].
With O=C(C1CC(c2ccc(F)cc2)=NO1)N1CCCCC1 (stereo unspecified) the Potency was inconclusive: 2.06 µM [activator, partial curve, poor fit].
In the case of COc1ccc(-c2ncncc2-c2ccc(OC)c(OC)c2)c(O)c1, the Potency is reported as inconclusive: 29.1 µM [activator, single point].
With CC1CCN(S(=O)(=O)c2ccc(Oc3ccc([N+](=O)[O-])cc3)cc2)CC1 the Potency was inconclusive: 5.8 µM [falling, partial curve, poor fit].
For CNS(=O)(=O)c1cccc(C(=O)OCc2cc(Cl)cc3c2OCOC3)c1, the Potency was inconclusive: 29.1 µM [falling, partial curve, poor fit].
In the case of O=C(CN1C(=O)/C(=C\c2cccc(Br)c2)Oc2ccccc21)NCCCN1CCOCC1, the Potency is reported as inconclusive: 32.6 µM [falling, single point].
In the case of CN(C)S(=O)(=O)c1cccc(NC(=O)COC(=O)c2ccc3c(c2)OCO3)c1, the Potency is reported as inconclusive: 29.1 µM [activator, single point].
With c1ccc(COc2ccc(OCCn3cncn3)cc2)cc1 the Potency was inconclusive: 10.3 µM [activator, partial curve].
For CC1CCN(C(=O)c2ccc3c(c2)OCCO3)CC1, the Potency was inconclusive: 18.4 µM [activator, partial curve].
With O=C(COc1ccc([N+](=O)[O-])cc1)Nc1ccc(CN2CCOCC2)cc1 the Potency was inconclusive: 29.1 µM [falling, single point].
For COc1ccccc1C(=O)NC(=S)/C=C1/N(C)c2ccccc2C1(C)C, the Potency was inconclusive: 29.1 µM [falling, single point].
For O=C(O)c1ccc(Nc2nc(-c3cc4ccccc4oc3=O)cs2)cc1O, the “activity change, negative = inhibition” value was inactive: 1.64%.
In the case of COc1ccc(S(=O)(=O)N2CCN(C(=O)C3COc4ccccc4O3)CC2)cc1 (stereo unspecified), the “activity change, negative = inhibition” value is reported as inactive: -17.9%.
For CCOc1ccccc1NC(=S)C(=C([O-])c1ccc2c(c1)OCCO2)[n+]1ccc(CC)cc1, the “activity change, negative = inhibition” value was inactive: 4.22%.
For O=C1c2[nH]nc(-c3ccc(Br)cc3)c2C(c2cccc(O)c2)N1c1ccc(Cl)cc1 (stereo unspecified), the Potency was inconclusive: 29.1 µM [falling, single point].
With CC(C)(C)NC(=O)Cn1nnc(-c2ccccc2NC(=O)c2ccco2)n1 the Potency was inconclusive: 16.4 µM [falling, single point].
